Patent US12440493B2, “Combination therapy for treating cancer comprising substituted piperazines” (Eli Lilly and Company, priority 2020, dated 2025)
Where “and” joins values, the source holds several entries; their conditions need not be identical. Equal entries are not always repeated.

Test system: 2-HG production
Test: Plasma 2-HG inhibition (LC-MS metabolite analysis in plasma of AML PDx model)
Assay type: in vivo, human
Settings: F: 50 mg/kg Midostaurin, QD, PO, one line per animal

SMILES: CO[C@@H]1[C@H](N(C)C(=O)c2ccccc2)C[C@H]2O[C@]1(C)n1c3ccccc3c3c4c(c5c6ccccc6n2c5c31)C(=O)NC4 [Midostaurin, reference compound]
- % Inhibition of 2-HG: 17.254% and 40.521% and 66.37% and −26.601% and 49.298%
